PubChem BioAssay AID1671195 – Yale University, 2021
In all, the deposit lists about 22,000 reagents; shown is a random part of them. About 1,510 of them (6.9%) were called active. 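Active includes knockdowns raising or lowering LDL uptake; positive z-scores mean more uptake, negative mean less.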

Purpose: 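Knockdowns that increase or decrease uptake of fluorescent LDL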 (primary screen)
Cells: human Huh7 hepatoma cells
Reagent: siRNA pool against human genes, 18 nM
Timing: about 2 to 2.5 days of knockdown, then 8 h LDL uptake
Challenge: DiI-labelled LDL at 30 µg/ml for 8 h, in lipoprotein-deficient serum medium
Detection: 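Fluorescent LDL signal imaged in cells, scaled to the plate median, robust z-score for each replicate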
Direction: robust z-score: higher = more LDL uptake after knockdown
Active means: 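a gene counts as active if at least two replicate z-scores exceed ±2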

Against MATCAP2 (microtubule associated tyrosine carboxypeptidase 2) the deposit lists robust z-score, replicate 1 = -2.72; robust z-score, replicate 2 = -1.1; robust z-score, replicate 3 = -3.36; active. ZDHHC5 (zDHHC palmitoyltransferase 5) gave robust z-score, replicate 1 = 1.47; robust z-score, replicate 2 = 2.17; robust z-score, replicate 3 = 1.98; active. Knock-down of ACTR8 (actin related protein 8) came out at: robust z-score, replicate 1 = -0.325; robust z-score, replicate 2 = -0.524; robust z-score, replicate 3 = 0.0479; inactive. LOC440825 (retired record) showed robust z-score, replicate 1 = 0.47; robust z-score, replicate 2 = -0.203; robust z-score, replicate 3 = -0.508; inactive. After knock-down of ARMCX6 (armadillo repeat containing X-linked 6), the screen gave robust z-score, replicate 1 = -0.921; robust z-score, replicate 2 = -0.938; robust z-score, replicate 3 = 0.0473; inactive. TCTN3 (tectonic family member 3) scored robust z-score, replicate 1 = -1.44; robust z-score, replicate 2 = -0.97; robust z-score, replicate 3 = -0.67; inactive.

With knock-down of RBIS (ribosomal biogenesis factor) the results were robust z-score, replicate 1 = 0.701; robust z-score, replicate 2 = 0.434; robust z-score, replicate 3 = 0.684; inactive. Against H3C11 (H3 clustered histone 11) the deposit lists robust z-score, replicate 1 = 2.9; robust z-score, replicate 2 = 1.08; robust z-score, replicate 3 = 2.99; active. Knock-down of FLJ33534 (Putative uncharacterized protein FLJ33534) came out at: robust z-score, replicate 1 = 0.133; robust z-score, replicate 2 = 0.362; robust z-score, replicate 3 = 0.396; inactive. Depletion of NHSL1-AS1 (NHSL1 antisense RNA 1) resulted in: robust z-score, replicate 1 = -0.78; robust z-score, replicate 2 = -0.964; robust z-score, replicate 3 = -1.02; inactive. For LINC01597 (long independently transcribed non-coding RNA 1597), the values are robust z-score, replicate 1 = -0.148; robust z-score, replicate 2 = -0.796; robust z-score, replicate 3 = -0.42; inactive. ZNF79 (zinc finger protein 79) showed robust z-score, replicate 1 = 0.177; robust z-score, replicate 2 = -0.0756; robust z-score, replicate 3 = -0.0297; inactive.

A stretch of the results above, for reference:
TCTN3 (tectonic family member 3) → robust z-score, replicate 1 = -1.44; robust z-score, replicate 2 = -0.97; robust z-score, replicate 3 = -0.67; call = inactive
RBIS (ribosomal biogenesis factor) → robust z-score, replicate 1 = 0.701; robust z-score, replicate 2 = 0.434; robust z-score, replicate 3 = 0.684; call = inactive
H3C11 (H3 clustered histone 11) → robust z-score, replicate 1 = 2.9; robust z-score, replicate 2 = 1.08; robust z-score, replicate 3 = 2.99; call = active
FLJ33534 (Putative uncharacterized protein FLJ33534) → robust z-score, replicate 1 = 0.133; robust z-score, replicate 2 = 0.362; robust z-score, replicate 3 = 0.396; call = inactive

The listing continues:
TRIM72 (tripartite motif containing 72) showed robust z-score, replicate 1 = -1.29; robust z-score, replicate 2 = -1.27; robust z-score, replicate 3 = -0.97; inactive. MMP9 (matrix metallopeptidase 9) showed robust z-score, replicate 1 = -1.01; robust z-score, replicate 2 = 0.00438; robust z-score, replicate 3 = -0.603; inactive. Against GTSE1 (G2 and S-phase expressed 1), the values are robust z-score, replicate 1 = 1.27; robust z-score, replicate 2 = 2.6; robust z-score, replicate 3 = 1.89; active. Against LINC00994 (long independently transcribed non-coding RNA 994), the values are robust z-score, replicate 1 = -0.923; robust z-score, replicate 2 = -0.785; robust z-score, replicate 3 = -0.311; inactive. Knock-down of CEP162 (centrosomal protein 162) resulted in: robust z-score, replicate 1 = 2.74; robust z-score, replicate 2 = 1.56; robust z-score, replicate 3 = 0.89; inactive. For SMARCC1 (SWI/SNF related BAF chromatin remodeling complex subunit C1) the deposit lists robust z-score, replicate 1 = 1.15; robust z-score, replicate 2 = 0.137; robust z-score, replicate 3 = 1.27; inactive.

For PDAP1 (PDGFA associated protein 1) the deposit lists robust z-score, replicate 1 = 0.169; robust z-score, replicate 2 = -1.26; robust z-score, replicate 3 = 0.618; inactive. H2AC11 (H2A clustered histone 11) scored robust z-score, replicate 1 = 1.42; robust z-score, replicate 2 = 0.134; robust z-score, replicate 3 = 0.0446; inactive. With knock-down of HNRNPC (heterogeneous nuclear ribonucleoprotein C), the record shows robust z-score, replicate 1 = 1.27; robust z-score, replicate 2 = 0.897; robust z-score, replicate 3 = 1.63; inactive. With knock-down of LOC390338 (retired record), the record shows robust z-score, replicate 1 = 0.0162; robust z-score, replicate 2 = -0.0701; robust z-score, replicate 3 = 0.0969; inactive. For NELFA (negative elongation factor complex member A), the entry reads robust z-score, replicate 1 = -0.341; robust z-score, replicate 2 = 0.645; robust z-score, replicate 3 = -0.272; inactive. COPZ1 (coat protein complex I subunit zeta 1) gave robust z-score, replicate 1 = -0.0858; robust z-score, replicate 2 = -0.289; robust z-score, replicate 3 = -0.2; inactive.
